From the supplement of paper PMC12823440, “Inhibitors supercharge kinase turnover through native proteolytic circuits” (Nature, 2025)
Structures can show the parent of a compound that is named as a salt. Some of the results follow. The calls rarely recur for the same compound in another form.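 In K562 cells expressing nanoluciferase-fused kinases, luminescence was recorded at 4 h intervals between 2 and 18 h, normalized as percent of control with DMSO at 100% and a positive control at 0%. A significant (2 sigma) signal drop marks a time point as decreased. The authors' rule for a hit is not shown and takes in more than the number of time points.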

Amino acid sequences for entries named in this document (tags omitted).
UniProt P50750, whole entry: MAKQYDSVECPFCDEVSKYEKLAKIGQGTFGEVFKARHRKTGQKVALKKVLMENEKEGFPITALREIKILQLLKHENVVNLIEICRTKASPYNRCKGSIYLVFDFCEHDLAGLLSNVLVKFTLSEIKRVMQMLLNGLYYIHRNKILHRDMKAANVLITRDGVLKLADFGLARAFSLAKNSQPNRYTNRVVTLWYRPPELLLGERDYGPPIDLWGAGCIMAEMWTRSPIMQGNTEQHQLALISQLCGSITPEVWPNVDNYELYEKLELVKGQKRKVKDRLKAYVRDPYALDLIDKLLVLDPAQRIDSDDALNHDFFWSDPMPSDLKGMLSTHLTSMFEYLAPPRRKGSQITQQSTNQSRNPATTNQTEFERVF

Target: CDK9 (UniProt P50750)
Experiment: number of time points (of 4; 2 h point missing) at which kinase-Nluc abundance scored as decreased, DMSO-normalised (count); higher = more persistent destabilization
Details: K562, 2-18 h

| Structure (SMILES) | number of time points (10 µM) | number of time points (2.5 µM) |
| --- | --- | --- |
| CC(C)N(CCC(=O)c1ccc2ccccc2c1)Cc1ccccc1 | 0 |  |
| Nc1ncccc1-c1nc2ccc(-c3ccccc3)nc2n1-c1ccc(C2(N)CCC2)cc1 [Miransertib] | 0 |  |
| CC1(C)CNc2cc(NC(=O)c3cccnc3NCc3ccncc3)ccc21 [Motesanib] |  | 0 |
| CCOc1cc2ncc(C#N)c(Nc3ccc(F)c(Cl)c3)c2cc1NC(=O)/C=C/CN(C)C [Pelitinib] |  | 0 |
| CNC(=O)c1cc(Oc2ccc(NC(=O)Nc3ccc(Cl)c(C(F)(F)F)c3)cc2)ccn1 [Sorafenib (Tosylate)] | 0 |  |
| CC#CC(=O)N1CCC[C@H]1c1nc(-c2ccc(C(=O)Nc3ccccn3)cc2)c2c(N)nccn12 [Acalabrutinib] | 0 |  |
| O=S(=O)(c1cccc2c(O)nccc12)N1CCCNCC1 [Hydroxyfasudil] | 0 |  |
| CCN(CC)CCNC(=O)c1c(C)[nH]c(/C=C2\C(=O)Nc3ccc(F)cc32)c1C [Sunitinib] |  | 0 |
| Cn1cc(/C=C2\C(=O)Nc3cccnc32)c2ccccc21 | 0 |  |
| O=C1Cc2c([nH]c3ccc(Br)cc23)-c2ccccc2N1 [Kenpaullone] | 0 |  |
| C[C@H]1Oc2cc(cnc2N)-c2c(nn(C)c2C#N)CN(C)C(=O)c2ccc(F)cc21 [Lorlatinib] | 0 |  |
| CCOc1nc(NC(=O)Cc2cc(OC)ccc2OC)cc(N)c1C#N [JNK Inhibitor VIII] | 0 |  |
| NC1(C(=O)N[C@@H](CCO)c2ccc(Cl)cc2)CCN(c2nc[nH]c3nccc2-3)CC1 [Capivasertib] | 0 |  |
| CC1(C)CNc2cc(NC(=O)c3cccnc3NCc3ccncc3)ccc21 [Motesanib (Diphosphate)] |  | 0 |
| Cc1cc(Nc2cc(N3CCN(C)CC3)nc(/C=C/c3ccccc3)n2)n[nH]1 |  | 0 |
| CC[C@@H]1C(=O)N(C)c2cnc(Nc3ccc(C(=O)NC4CCN(C)CC4)cc3OC)nc2N1C1CCCC1 | 1 |  |
| Cc1nc(Nc2ncc(C(=O)Nc3c(C)cccc3Cl)s2)cc(N2CCN(CCO)CC2)n1 [Dasatinib] |  | 2 |
| CC1(C)C(=O)N([C@H]2CCc3c(O)cccc32)c2nc(Nc3cccc(CN4CCCC4)c3)ncc21 |  | 2 |
| Cc1cnc(Nc2ccc(OCCN3CCCC3)cc2)nc1Nc1cccc(S(=O)(=O)NC(C)(C)C)c1 [Fedratinib (hydrochloride hydrate)] |  | 0 |
| CN1CCN(c2nc(C3=C(c4c[nH]c5ccccc45)C(=O)NC3=O)c3ccccc3n2)CC1 [Sotrastaurin] |  | 0 |
| CN1CCN(c2ccc3nc(-c4c(N)c5c(F)cccc5[nH]c4=O)[nH]c3c2)CC1 [Dovitinib (lactate)] |  | 0 |
| Cc1cnc(Nc2ccc(OCCN3CCCC3)cc2)nc1Nc1cccc(S(=O)(=O)NC(C)(C)C)c1 [Fedratinib] |  | 0 |
| COc1cc(N2CCN(C)CC2)ccc1Nc1nccc(-c2cn(C)c3cnccc23)n1 | 0 |  |
| N#CC(=Cc1cc(Cl)cc(Cl)c1)c1cccnc1 | 0 |  |
| CC(C)n1nc(-c2cc3cc(O)ccc3[nH]2)c2c(N)ncnc21 [Torkinib] |  | 0 |
| COc1ccc(-c2cc(C(=O)NN=C(C)c3ccc(OC)c(OC)c3)[nH]n2)cc1 | 0 |  |
| C=CC(=O)Nc1cc2c(Nc3ccc(F)c(Cl)c3)ncnc2cc1OCCCN1CCOCC1 [Canertinib] | 0 |  |

Part of the list above in another layout.
Structure (SMILES) | number of time points (10 µM) | number of time points (2.5 µM)
CC[C@@H]1C(=O)N(C)c2cnc(Nc3ccc(C(=O)NC4CCN(C)CC4)cc3OC)nc2N1C1CCCC1 | 1 | 
Cc1nc(Nc2ncc(C(=O)Nc3c(C)cccc3Cl)s2)cc(N2CCN(CCO)CC2)n1 [Dasatinib] |  | 2
